Measurements as given in US20240092920A1 (KEYMED BIOSCIENCES, published 2024).
Numbering of substitutions follows the chain as printed. Results are given in words; binding and its absence hold for the method and conditions named. Some results given as binding are weak or reduced against the parent protein; the word gives no strength.

Protein sequences, listed by entry. Tags and fused reporters are not part of them. Lines headed by an entry give the natural chain unless they say otherwise; changes in a name come on top. Chains listed by the source or under a name are the forms on record and can include a tag or linker. Residues count along the entry.
hIL-4Rα, full length, on stably transfected HEK293 cells (P24394, residues 26-825): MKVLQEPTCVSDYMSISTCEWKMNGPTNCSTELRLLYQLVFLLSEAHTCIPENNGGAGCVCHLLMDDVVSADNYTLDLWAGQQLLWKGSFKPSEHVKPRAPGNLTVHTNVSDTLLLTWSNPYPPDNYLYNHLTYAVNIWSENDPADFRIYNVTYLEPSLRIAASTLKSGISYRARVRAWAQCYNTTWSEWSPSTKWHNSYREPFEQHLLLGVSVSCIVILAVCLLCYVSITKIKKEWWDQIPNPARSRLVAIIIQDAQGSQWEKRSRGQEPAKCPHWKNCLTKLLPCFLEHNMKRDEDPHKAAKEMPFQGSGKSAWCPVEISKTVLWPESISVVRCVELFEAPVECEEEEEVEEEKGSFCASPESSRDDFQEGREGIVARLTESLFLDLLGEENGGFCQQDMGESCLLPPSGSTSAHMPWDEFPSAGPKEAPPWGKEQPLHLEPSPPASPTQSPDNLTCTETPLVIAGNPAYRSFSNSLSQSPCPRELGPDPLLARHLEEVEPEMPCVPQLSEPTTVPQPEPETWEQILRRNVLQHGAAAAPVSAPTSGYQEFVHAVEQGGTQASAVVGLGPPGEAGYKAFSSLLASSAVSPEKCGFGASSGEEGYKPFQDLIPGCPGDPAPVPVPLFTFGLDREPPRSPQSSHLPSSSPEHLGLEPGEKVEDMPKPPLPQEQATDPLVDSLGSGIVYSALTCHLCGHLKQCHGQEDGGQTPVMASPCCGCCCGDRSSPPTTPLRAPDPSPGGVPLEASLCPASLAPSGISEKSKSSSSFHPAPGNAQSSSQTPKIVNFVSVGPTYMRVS
recombinant protein of human IL-4Rα extracellular region (P24394, form named): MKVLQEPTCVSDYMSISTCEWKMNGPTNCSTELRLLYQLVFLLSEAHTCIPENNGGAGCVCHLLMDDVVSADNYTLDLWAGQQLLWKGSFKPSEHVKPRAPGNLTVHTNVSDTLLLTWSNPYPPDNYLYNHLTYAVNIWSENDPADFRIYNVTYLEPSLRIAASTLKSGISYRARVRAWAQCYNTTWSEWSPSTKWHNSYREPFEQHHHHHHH

Tests used:
[1] = target: hIL-4Rα, full length, on stably transfected HEK293 cells (human) (UniProt P24394); assay: flow cytometry on HEK293-hIL-4Rα stably transfected cells, purified Fab, anti-human IgG Fab'2-AF647
[2] = target: recombinant protein of human IL-4Rα extracellular region (human) (UniProt P24394); assay: BLI (Fortebio), biotin-labeled hIL-4Rα on SA probe, Fab at 100 ug/ml
[3] = target: hIL-4Rα, full length, on stably transfected HEK293 cells (human) (UniProt P24394); assay: flow cytometry on 293-hIL-4Rα stably transfected cells, anti-human IgG Fab'2-AF647
[4] = target: hIL-4Rα, full length, on stably transfected HEK293 cells (human) (UniProt P24394); assay: flow cytometry blocking assay on 293-hIL-4Rα stably transfected cells; blocked ligand: biotin-labeled IL-4 at 0.15 ug/ml, SA-PE

B1: Clone 35A7 (antibody, V domains shown)
VH: QVQLKQSGAELVKPGASVKMSCTASGNIFSGYNMHWIKQTPGQGLEWIGGLHPGNGDTSYNQKFKGKATLTADKSSNTAYMQLSSLTSEDSAVYYCALTTAGRAWFAYWGQGTLVTVSA
VL: DIQMNQSTSSLSASLGDRVTISCRASQDISNYLNWYQQKPDGTIKLLIYYTSRLYSGVPSRFSGSGSGTDYSLTISNLEEEDIATYFCQQGNTIPYTFGGGTKLEIK
notes: Chimeric IgG (section 6)
[1]
  binding: binds

B2: Clone 2F8 (antibody, V domains shown)
VH: B1 VH with K5Q, A9T, T23K, G26V, I28T, S30T, T58S, K67R, A107P
VL: B1 VL with N5T, I44V, Y55H, E80Q, I94L, Y96W
[2]
  binding: binds

B3: 1021/1013 (antibody, IgG1, V domains shown)
VH: EVQLVESGGGLVKPGGSLRLSCAASGFTFSRYAMSWVRQAPGKGLEWVSTISSGGSYTNYADSVKGRFTISRDNVKNTLYLQMNSLRAEDTAVYYCARATARATEFAYWGQGTLVTVSS
VL: DIQMTQSPSSLSASVGDRVTITCQASQDISNYLNWYQQKPGKAPKLLIYYTSRLHSGVPSRFSGSGSGTDYTLTISSLQPEDFATYFCQQGNTLPLTFGGGTKVEIK
notes: Humanized candidate antibody; also called 1021/1013-IgG; VH1021 with VL1013
[3]
  binding: binds
[4]
  binding: binds
